The whole screen tested about 1,400 compounds, of which about 50 (4%) were called active.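 The calls were made as follows: active = fitted curve reaches 30% CPE protection at or below the top valid dose, with every test run called active; inconclusive = test runs disagree, some active and some not; inactive = every test run inactive, including effects in the wrong direction.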 The list shows a part of the results. Measured potencies and affinities stand elsewhere.
Experiment: antiviral rescue of DENV2-infected BHK-21 cells – cell-based, ATP luminescence, cherry-pick, dose response (AID 687031);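 also: 0% = infected DMSO wells and 100% = uninfected cell wells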
Conditions: BHK-21 DENV2 CPE protection, 5 d; at 19.5 µM (top of the series) unless noted

| Compound | CPE protection (higher = active) |
| --- | --- |
| C[C@@H]1CN([C@H](C)CO)C(=O)c2cc(NC(=O)c3ccncc3)ccc2O[C@@H](C)CCCCO[C@H]1CN(C)Cc1ccc(Cl)c(Cl)c1 | inactive: 12.8% |
| CCOc1ncccc1C(=O)NNC(=O)c1cccc(S(=O)(=O)Nc2ccccc2OC)c1 | inactive: -1.9% |
| O=C(OCc1cn([C@H]2CN(C(=O)C3CCCCC3)[C@@H](c3ccccc3)C[C@@H]2O)nn1)c1ccccc1 | inactive: -9.15% |
| COc1cc(OC)cc(C(=O)Nc2ccc(N3CCN(C(=O)c4cccs4)CC3)cc2)c1 | inactive: 17.4% |
| CCNC(=O)N(C)C[C@H]1N[C@@](CC)(C(=O)OC)[C@H]2C(=O)N(Cc3ccccc3)C(=O)[C@@H]12 | inactive: -0.204% |
| CC1(C(=O)NCc2cccs2)Cc2c(-c3cccc(C(F)(F)F)c3)ccnc2O1 (centres undefined) | inactive: 17% |
| COc1ccccc1S(=O)(=O)N(C)C[C@H]1Oc2cc(C#CCC(C)C)ccc2S(=O)(=O)N([C@@H](C)CO)C[C@@H]1C | inactive: -24.4% |
| COc1cc(OC)cc(C(=O)NCc2ccc3c(c2)OCO3)c1 | inactive: -6.35% |
| O=C(N[C@H](Cc1ccccc1)C(=O)NC1CCCCC1)[C@H]1O[C@@H](n2ccc(=O)[nH]c2=O)[C@H](O)[C@@H]1O | inactive: 10.2% |
| CC1=C(C(=O)N(C)C)CC(CC(=O)NC2CCCCC2)C(=O)N1Cc1ccc(C(C)(C)C)cc1 (centres undefined) | inactive: 17.7% |
| CS(=O)(=O)N1[C@@H]2c3ccc(-c4ccc(F)cc4)c(=O)n3C[C@H]1[C@H](CO)[C@H]2C(=O)N1CCOCC1 | inactive: 18% |
| CCOC(=O)N1C=CC=C[C@@H]2[C@@H](N3C(=O)c4ccccc4C3=O)C(=O)N21 | inactive: -9.2% |
| CCN(CC)C(=O)C1CCN(Cc2ccc(OCc3ccccc3)cc2)CC1 | inactive: 26.5% [at 10 µM] |
| CC1(C(=O)NCc2ccccc2)CN(S(C)(=O)=O)CC(=O)N1CCc1ccc(O)cc1 (centres undefined) | inactive: -2.07% |
| Cc1cc(OCC(=O)NC2CC(C)(C)NC(C)(C)C2)c(C)cc1Br | inactive: -5.56% |
| O=C(O)CC(NC(=O)C12CC3CC(CC(C3)C1)C2)c1ccc(OC2CCCC2)cc1 (centres undefined) | inactive: 16.6% |
| COc1cccc(C(O)c2nc(-c3cc(F)cc(F)c3)cs2)c1 (centres undefined) | inactive: -22.6% |
| Cc1cc(Cl)c(OCCCNC2CCCC2)c(Br)c1 | inactive: -1% |
| C[C@H]1CCCCO[C@H](CN(C)C(=O)Nc2ccc3c(c2)OCO3)[C@@H](C)CN([C@@H](C)CO)C(=O)c2cc(NC(=O)NC3CCCCC3)ccc2O1 | inactive: -34.5% |
| COc1ccc(NC(=O)c2cc3ccccc3cc2O)cc1 | inactive: 16.6% |
| Fc1ccc(CCN2CCN=C2Nc2ccccc2)cc1 | inactive: -3.47% |
| O=C(NCc1ccccc1)c1ccccc1 | inactive: -3.58% |
| CCS(=O)(=O)Nc1ccc2c(c1)C(=O)N(C)C[C@H](OC)[C@@H](C)CN(C(=O)COC)[C@H](C)CO2 | inactive: -1.35% |
| C[C@@H]1CCCCO[C@@H](CN(C)S(=O)(=O)c2ccc(F)cc2)[C@@H](C)CN([C@@H](C)CO)C(=O)c2cc(NC(=O)c3ccccc3)ccc2O1 | inactive: -0.86% |
| C=CCOc1ccc(CNCc2cccnc2)cc1OCC | inactive: -5.99% |

| Compound | CPE protection (higher = active) |
| --- | --- |
| CC(OC(=O)c1ccc2c(=O)n3c(nc2c1)CCC3)C(=O)NC1CCCCC1C (centres undefined) | inactive: 20.4% |
| Cc1ccc(C(=O)NCC(=O)Nc2ccc(S(=O)(=O)Nc3cc(C)nc(C)n3)cc2)cc1 | inactive: -0.439% |
| O=C(Nc1ncccc1O)c1ccc(S(=O)(=O)N2CCCCCC2)cc1 | inactive: 23.1% |
| COc1ccc(-c2cnc3c(NC(C)=O)cc(-c4ccccc4OC)cn23)cc1OC | inactive: -20.4% |
| O=C(Oc1c(CN2CCOCC2)cc(Cl)c2cccnc12)c1ccccc1Br | inactive: -11.5% |
| CC(NC(=O)CCc1ccccc1)c1ccc2c(c1)OCO2 (centres undefined) | inactive: 1.74% |
| CCN1CCN(CCc2nc3cc(NC(=O)COc4ccc(Cl)cc4)ccc3n2C)CC1 | inactive: -0.901% |
| COc1ccc(C)cc1NC(=O)C(c1ccccc1)N1CCN(CC(=O)N2CCOCC2)CC1 (centres undefined) | inactive: -0.859% |
| Cc1ccccc1NS(=O)(=O)c1ccc(S(=O)(=O)N2CCCC2)cc1 | inactive: 2.34% |
| CC1(C(=O)Nc2cccc(OC(F)(F)F)c2)Cc2c(-c3cccc(C(N)=O)c3)ccnc2O1 (centres undefined) | inactive: 8.12% [at 10 µM] |
| COc1ccccc1N1CCN(Cc2cnc3ccc(Cl)cn23)CC1 | inactive: 0.522% |
| COc1ccc(-c2sc3cc4c(cc3c2C#Cc2cncn2C)OCO4)cc1 | inactive: 17.5% |
| O[C@@H]1CN(Cc2cccs2)[C@@H](c2ccccc2)C[C@H]1n1cc(-c2ccc(F)cc2)nn1 | inactive: 9.08% |
| COc1ccc(NC(=O)N[C@H]2CC[C@@H](CCn3cc(C4(O)CCCC4)nn3)O[C@@H]2CO)cc1 | inactive: 9.92% |
| COc1ccc(COC(=O)C2=C(C)NC(=O)NC2c2ccccc2F)cc1 (centres undefined) | inactive: 4.68% |
| Brc1ccc(-c2nnc(-c3cccnc3)o2)cc1 | inactive: 13.5% |
| O=C(C1CC1)N1[C@@H](CO)[C@@H]2c3ccccc3NC[C@@H]21 | inactive: -11.3% |
| CC(C)(C)OC(=O)N[C@H]1C=C[C@@H](CC(=O)OCC(F)(F)F)C1 | inactive: 12.1% |
| C[C@H]1CCCCO[C@@H](CN(C)C(=O)Nc2cccc3ccccc23)[C@@H](C)CN([C@@H](C)CO)C(=O)c2cc(NC(=O)Cc3ccccc3)ccc2O1 | inactive: -8.48% |
| Cc1ccc2oc(C(=O)N(Cc3ccncc3)CC3CCCO3)c(C)c2c1 (centres undefined) | inactive: -4.69% |
| CCCNC(=O)N1[C@H](CO)[C@@H](c2ccccc2)C12CN(C(=O)C1CCCCC1)C2 | inactive: -14.2% [at 21 µM] |
| O=C(OCc1ccccc1)N1CCCC2CC1c1ccccc12 (centres undefined) | inactive: 2.88% |
| C[C@H]1CN([C@@H](C)CO)C(=O)c2cc(NC(=O)CCCN(C)C)ccc2O[C@@H]1CN(C)S(=O)(=O)c1ccc(Cl)cc1 | inactive: -11.3% [at 21 µM] |
| Cc1cccc(OCC(=O)NNC(=O)C2CCCCC2C(=O)O)c1 (centres undefined) | inactive: -36.8% |

A draw from above in order of count of non-hydrogen atoms, ascending.

| Compound | CPE protection (higher = active) |
| --- | --- |
| Cc1cc(OCC(=O)NC2CC(C)(C)NC(C)(C)C2)c(C)cc1Br | inactive: -5.56% |
| COc1ccccc1N1CCN(Cc2cnc3ccc(Cl)cn23)CC1 | inactive: 0.522% |
| COc1ccc(NC(=O)N[C@H]2CC[C@@H](CCn3cc(C4(O)CCCC4)nn3)O[C@@H]2CO)cc1 | inactive: 9.92% |

Reference: PubChem BioAssay AID687031 (Broad Institute, 2013)
